The record followed here is PubChem BioAssay AID1362 (SRMLSC, 2008).

Some of the results follow. Some tests of the compounds listed are not included; inactive here does not mean inactive elsewhere.

This experiment can be described thus: growth inhibition of WT strain, primary screen, mitochondrial fusion inhibitor project, WT and mutant strains, chemical genetic (AID 1362). Note: tested in S. cerevisiae. Particulars: mitochondrial fusion phenotypic screen, at 10 µM.
The term inhibition denotes the relative decrease from the control value, in per cent. For `CC(C)N1C(=O)CC2(CCN(CCOC(=O)C(O)(c3ccccc3)c3ccccc3)CC2)C1=O`, the inhibition was -0.57%.

Consider `O=C(NCC1(N2CCCCC2)CCCCC1)c1cc([N+](=O)[O-])ccc1Cl`, for which the inhibition is -1.29%. As for `C=CCN1CCN(CCOC(=O)C(O)(c2ccccc2)c2ccccc2)CC1`, the inhibition was -10.7%. Regarding `CCN1CCCC(OC(=O)C2(O)c3ccccc3C=Cc3ccccc32)C1` (centres undefined), the inhibition was -6.87%.

For `CN(C)C1CCCC1OC(=O)C(O)(c1ccccc1)c1ccccc1` (centres undefined), the inhibition is 1.8%. The figure for `Cc1ccccc1C(=O)NCC1(N2CCCCC2)CCCCC1` is 9.83%; for `COc1cccc(C(=O)NCC2(N3CCCCC3)CCCCC2)c1` it is 19.2%; for `CN(C)c1cccc(C(=O)NCC2(N(C)C)CCCCC2)c1` it is -0.18%.

For the compound `O=C(OC1CN2CCC1CC2)C(CO)(c1ccccc1)c1ccccc1` (centres undefined), the inhibition is 2.07%.
